According to publication PMC6629115:
Where a chain is given by its changes, count along the chain named. No constants are given. Whether binding was seen depends on the method and setting. For some of these results: Binding seen in cells or lysates may run through a third protein. Some entries that bind do so weakly or less than the wild type. For some of these results: Tags and fused reporters may be left off the sequences shown. Blank lines part the entries; values can stand above or below the molecule they belong to.

Sequences of proteins named here, by UniProt entry; tags and fusion partners are left off.
UniProt P23763: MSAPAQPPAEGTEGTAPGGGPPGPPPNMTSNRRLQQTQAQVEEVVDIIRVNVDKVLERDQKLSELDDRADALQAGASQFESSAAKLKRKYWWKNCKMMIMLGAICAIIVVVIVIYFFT
UniProt P63027: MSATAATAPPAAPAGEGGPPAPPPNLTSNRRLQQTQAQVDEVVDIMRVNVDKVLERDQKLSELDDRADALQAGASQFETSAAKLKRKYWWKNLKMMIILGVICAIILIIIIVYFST
UniProt O95292: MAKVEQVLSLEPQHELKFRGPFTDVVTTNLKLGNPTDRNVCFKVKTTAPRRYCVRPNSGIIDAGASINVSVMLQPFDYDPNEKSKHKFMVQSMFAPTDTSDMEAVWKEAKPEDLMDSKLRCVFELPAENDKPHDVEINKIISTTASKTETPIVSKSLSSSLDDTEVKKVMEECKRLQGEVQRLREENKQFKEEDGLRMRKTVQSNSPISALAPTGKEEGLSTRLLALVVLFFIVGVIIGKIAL
UniProt Q9JKA9: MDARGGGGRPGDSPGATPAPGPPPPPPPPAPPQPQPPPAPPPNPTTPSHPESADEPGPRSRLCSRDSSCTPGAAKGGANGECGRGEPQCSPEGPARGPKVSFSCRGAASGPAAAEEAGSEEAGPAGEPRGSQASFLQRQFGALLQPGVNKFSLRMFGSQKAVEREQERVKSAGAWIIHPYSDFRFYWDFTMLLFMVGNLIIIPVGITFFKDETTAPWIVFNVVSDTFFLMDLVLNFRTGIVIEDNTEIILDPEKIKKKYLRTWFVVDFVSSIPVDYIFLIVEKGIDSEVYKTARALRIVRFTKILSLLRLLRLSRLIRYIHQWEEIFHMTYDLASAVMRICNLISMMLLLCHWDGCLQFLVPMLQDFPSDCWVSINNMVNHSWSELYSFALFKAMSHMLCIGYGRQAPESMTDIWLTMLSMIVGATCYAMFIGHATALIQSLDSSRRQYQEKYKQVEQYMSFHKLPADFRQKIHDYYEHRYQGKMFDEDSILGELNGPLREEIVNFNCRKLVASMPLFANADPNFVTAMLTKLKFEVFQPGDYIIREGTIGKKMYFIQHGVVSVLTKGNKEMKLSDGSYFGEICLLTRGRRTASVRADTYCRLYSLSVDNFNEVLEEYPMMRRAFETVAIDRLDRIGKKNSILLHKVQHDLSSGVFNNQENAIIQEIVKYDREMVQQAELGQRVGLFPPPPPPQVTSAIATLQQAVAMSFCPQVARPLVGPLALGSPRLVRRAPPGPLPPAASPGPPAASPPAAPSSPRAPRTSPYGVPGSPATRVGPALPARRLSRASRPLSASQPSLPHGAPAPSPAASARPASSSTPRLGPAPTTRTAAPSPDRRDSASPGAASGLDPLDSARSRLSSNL

Columns and labels:
[1] = biological target: T1, GST-VAPA (^GSTVAPA) (human) (UniProt Q9P0L0); experiment: pull-down; GST fusion proteins from BL21 lysate on MagneGST beads; lysate (RIPA buffer) of HeLa cells transfected with HCN2^EGFP; immunoblot with anti-GFP; only the target purified
T1 sequence: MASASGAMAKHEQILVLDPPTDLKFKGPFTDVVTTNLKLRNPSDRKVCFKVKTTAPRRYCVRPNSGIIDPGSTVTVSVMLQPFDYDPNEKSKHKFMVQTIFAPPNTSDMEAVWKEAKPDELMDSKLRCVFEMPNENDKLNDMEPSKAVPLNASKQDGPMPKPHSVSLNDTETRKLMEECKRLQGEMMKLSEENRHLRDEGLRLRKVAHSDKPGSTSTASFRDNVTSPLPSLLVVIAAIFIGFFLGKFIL

[2] = biological target: T2, hHCN4 (bait pBT3-hHCN4) (human) (UniProt Q9Y3Q4); experiment: two-hybrid; split-ubiquitin Y2H direct interaction assay; prey hVAPB in pPR3-N, baits in pBT3 (mHCN2, its truncations, hHCN4); colony growth on minimal medium (-LWHA)
T2 sequence: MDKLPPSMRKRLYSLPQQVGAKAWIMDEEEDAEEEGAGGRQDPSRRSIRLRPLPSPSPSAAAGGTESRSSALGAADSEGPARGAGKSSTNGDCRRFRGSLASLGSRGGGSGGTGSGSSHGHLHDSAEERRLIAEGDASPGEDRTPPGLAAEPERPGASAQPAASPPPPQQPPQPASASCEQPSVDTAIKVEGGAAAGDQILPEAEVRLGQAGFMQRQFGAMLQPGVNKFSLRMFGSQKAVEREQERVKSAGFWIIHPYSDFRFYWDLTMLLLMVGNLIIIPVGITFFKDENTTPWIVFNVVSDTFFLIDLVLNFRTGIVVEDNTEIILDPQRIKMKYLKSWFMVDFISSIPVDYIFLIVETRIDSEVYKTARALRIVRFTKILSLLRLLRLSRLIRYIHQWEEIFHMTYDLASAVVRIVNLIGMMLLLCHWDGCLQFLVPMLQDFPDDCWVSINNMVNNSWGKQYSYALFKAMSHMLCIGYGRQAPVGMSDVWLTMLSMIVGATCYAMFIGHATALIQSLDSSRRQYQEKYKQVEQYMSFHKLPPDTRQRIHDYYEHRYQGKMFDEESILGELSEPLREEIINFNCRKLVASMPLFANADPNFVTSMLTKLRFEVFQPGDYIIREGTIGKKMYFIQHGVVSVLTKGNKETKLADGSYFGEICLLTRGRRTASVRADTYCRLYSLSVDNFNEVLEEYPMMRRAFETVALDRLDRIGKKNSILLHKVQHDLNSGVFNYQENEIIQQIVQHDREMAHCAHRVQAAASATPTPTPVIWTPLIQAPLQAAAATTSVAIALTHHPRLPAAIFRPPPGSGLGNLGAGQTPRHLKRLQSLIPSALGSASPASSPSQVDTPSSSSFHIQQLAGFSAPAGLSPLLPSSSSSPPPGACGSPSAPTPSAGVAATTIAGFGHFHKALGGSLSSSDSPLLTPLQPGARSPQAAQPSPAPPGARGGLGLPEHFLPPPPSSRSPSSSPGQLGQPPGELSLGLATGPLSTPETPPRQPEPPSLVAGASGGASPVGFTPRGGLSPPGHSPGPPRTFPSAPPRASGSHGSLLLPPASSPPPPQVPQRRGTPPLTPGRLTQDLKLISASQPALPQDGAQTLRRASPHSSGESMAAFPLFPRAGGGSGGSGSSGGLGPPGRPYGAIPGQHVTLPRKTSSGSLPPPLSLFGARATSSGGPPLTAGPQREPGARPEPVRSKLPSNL

[3] = biological target: T3, full-length mHCN2 (bait pBT3-mHCN2) (mouse) (UniProt O88703); experiment: as above
T3 sequence: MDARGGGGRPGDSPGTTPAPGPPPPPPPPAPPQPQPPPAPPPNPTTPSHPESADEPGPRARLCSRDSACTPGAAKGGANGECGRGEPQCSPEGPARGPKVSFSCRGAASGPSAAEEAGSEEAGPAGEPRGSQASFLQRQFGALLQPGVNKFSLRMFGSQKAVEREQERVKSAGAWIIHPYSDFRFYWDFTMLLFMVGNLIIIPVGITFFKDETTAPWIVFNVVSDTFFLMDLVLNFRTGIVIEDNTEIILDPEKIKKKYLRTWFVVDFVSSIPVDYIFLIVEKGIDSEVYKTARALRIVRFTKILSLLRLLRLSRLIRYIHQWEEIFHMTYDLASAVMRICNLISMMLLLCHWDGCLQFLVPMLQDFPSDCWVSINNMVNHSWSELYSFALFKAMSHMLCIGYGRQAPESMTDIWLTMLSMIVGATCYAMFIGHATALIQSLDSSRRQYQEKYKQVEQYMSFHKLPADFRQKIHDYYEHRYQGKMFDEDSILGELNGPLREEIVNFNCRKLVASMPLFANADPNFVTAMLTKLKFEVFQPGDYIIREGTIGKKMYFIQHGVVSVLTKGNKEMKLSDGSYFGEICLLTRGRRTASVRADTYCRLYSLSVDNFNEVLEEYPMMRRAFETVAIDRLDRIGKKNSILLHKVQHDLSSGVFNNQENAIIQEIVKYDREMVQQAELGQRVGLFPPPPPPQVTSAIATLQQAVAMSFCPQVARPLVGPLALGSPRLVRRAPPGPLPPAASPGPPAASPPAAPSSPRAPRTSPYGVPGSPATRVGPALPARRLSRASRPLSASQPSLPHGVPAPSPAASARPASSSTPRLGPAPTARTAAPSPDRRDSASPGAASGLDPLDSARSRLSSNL

[4] = biological target: GST-VAMP1 (^GSTVAMP1) (human) (UniProt P23763); experiment: pull-down; GST fusion proteins from BL21 lysate on MagneGST beads; in vitro translated untagged HCN2 (TnT T7); immunoblot with anti-HCN2; only the target purified
[5] = biological target: GST-VAMP2 (^GSTVAMP2) (human) (UniProt P63027); experiment: as above
[6] = biological target: T1, GST-VAPA (^GSTVAPA) (human); experiment: as above
[7] = biological target: GST-VAPB (^GSTVAPB) (human) (UniProt O95292); experiment: as above
[8] = biological target: GST-VAMP1 (^GSTVAMP1) (human) (UniProt P23763); experiment: pull-down; GST fusion proteins from BL21 lysate on MagneGST beads; lysate (RIPA buffer) of HeLa cells transfected with HCN2^EGFP; immunoblot with anti-GFP; only the target purified
[9] = biological target: GST-VAMP2 (^GSTVAMP2) (human) (UniProt P63027); experiment: as above
[10] = biological target: GST-VAPB (^GSTVAPB) (human) (UniProt O95292); experiment: as above
[11] = biological target: T1, GST-VAPA (^GSTVAPA) (human); experiment: pull-down; GST fusion proteins on MagneGST beads; rat brain protein lysates; HCN2 detected by immunoblot; only the target purified
[12] = biological target: GST-VAPB (^GSTVAPB) (human) (UniProt O95292); experiment: as above

binding [1]: binds
Molecule: endogenously expressed VAPB (HeLa) (from UniProt O95292 1-243)

binding [2]: no binding
binding [3]: binds
Molecule: full-length hVAPB (prey in pPR3-N) (from UniProt O95292 1-243)

binding [4]: binds
binding [5]: binds
binding [6]: binds
binding [7]: binds
B1: in vitro translated HCN2 (untagged) (protein, UniProt O88703 1-863)
chain: T3 sequence

binding [8]: binds
binding [9]: binds
binding [1]: binds
binding [10]: binds
B2: HCN2^EGFP (protein, UniProt O88703 1-863)
chain: T3 sequence

binding [11]: binds
binding [12]: binds
B3: HCN2 from rat brain protein lysates (protein, UniProt Q9JKA9 1-863)
chain: T3 sequence with T16A, A60S, A68S, S112A, V803A, A828T
